Earlier results on 1 molecule are cited in patent US20140328930A1, “Pharmaceutical Compositions” (Alpharma Pharmaceuticals, LLC, priority 2007, published 2014).

The conditions of the data set: cited from earlier work.

Structures can show the parent of a compound that is named as a salt.

Regarding `O=C1CC[C@@]2(O)[C@H]3Cc4ccc(O)c5c4[C@@]2(CCN3CC2CC2)[C@H]1O5` [hydrochloride salt of naltrexone], the Solubility in water entry is on record as “about 100 mg/cc”.
